At least one read-out could not be matched to a standard name with certainty.
Target: Tyr^C89S locus
Assay: Tyr^C89S knock-in by three-component CRISPR, genotyping/albino phenotype of F0 pups
Format: in vivo, mouse
Details: F0 animals, with vs without RAD51
Method: tracrRNA, crRNAs, and ssODNs were synthesized by Integrated DNA Technologies (TABLE 1). All injection mixtures were prepared in a final volume of 50 μL according to the following methodology: Using RNase-free water, reagents, and consumables, crRNA (final concentration 0.61 μM), tracrRNA (final concentration 0.61 μM), and ultrapure Tris-HCl, pH 7.39 (final concentration 10 mM, ThermoFisher) were mixed and incubated at 95° C. for 5 minutes. The mixtures were cooled to room temperature for 10 minutes on the benchtop, and then, EnGen Cas9-NLS S. pyogenes (New England Biolabs) was added to a final concentration of 30 ng/μL. The mixtures were incubated at 37° C. for 15 minutes before adding any remaining components: ssODN (final concentration 3 ng/μL or 30 ng/μL), RAD51 (Creative Biomart, final concentration 10 ng/μL). Injection mixtures were stored on ice and briefly heated to 37° C. prior to injection. For experiments utilizing RS-1, embryos were cultured in KSOM-AA (EMD Millipore MR-121-D) with […] RS-1 (Sigma) dissolved in DMSO or DMSO (Sigma, 1:1000) for 24 hours, washed, and cultured in EmbryoMax FHM HEPES Buffered Medium (Sigma) until collection for genotyping.
For all experiments except those described in FIG. 6, the male pronucleus was injected. Injections performed for the CPI portion of FIG. 6 were targeted to the cytoplasm. […]

B1: RAD51: recombinant human strand exchange protein RAD51 (Creative Biomart RAD51-134H), transcript variant 4 (protein, UniProt Q06609 2-339, looked up)
DNA repair protein RAD51 …: AMQMQLEANADTSVEEESFGPQPISRLEQCGINANDVKKLEEAGFHTVEAVAYAPKKELINIKGISEAKADKILAEAAKLVPMGFTTATEFHQRRSEIIQITTGSKELDKLLQGGIETGSITEMFGEFRTGKTQICHTLAVTCQLPIDRGGGEGKAMYIDTEGTFRPERLLAVAERYGLSGSDVLDNVAYARAFNTDHQTQLLYQASAMMVESRYALLIVDSATALYRTDYSGRGELSARQMHLARFLRMLLRLADEFGVAVVITNQVVAQVDGAAMFAADPKKPIGGNIIAHASTTRLYLRKGRGETRICKIYDSPCLPEAEAMFAINADGVGDAKD
**Q.** For B1, which “overall KI efficiency” value is on record?
**A.** Its value is “not significantly affected”.

From patent US11643670B2, “Methods of enhancing chromosomal homologous recombination” (Massachusetts Institute of Technology, priority 2018, dated 2023)
